No constants are given. Whether binding was seen depends on the method and setting. Binding seen in cells or lysates may run through a third protein. These calls come from enrichment with a bait or labelling near it, and not all partners need be listed. Where a sequence is shown, tags or fusion partners need not be part of it.

Test [1] has as its target T1, MeeY-FLAG (B. subtilis) (UniProt O34997).
T1 sequence: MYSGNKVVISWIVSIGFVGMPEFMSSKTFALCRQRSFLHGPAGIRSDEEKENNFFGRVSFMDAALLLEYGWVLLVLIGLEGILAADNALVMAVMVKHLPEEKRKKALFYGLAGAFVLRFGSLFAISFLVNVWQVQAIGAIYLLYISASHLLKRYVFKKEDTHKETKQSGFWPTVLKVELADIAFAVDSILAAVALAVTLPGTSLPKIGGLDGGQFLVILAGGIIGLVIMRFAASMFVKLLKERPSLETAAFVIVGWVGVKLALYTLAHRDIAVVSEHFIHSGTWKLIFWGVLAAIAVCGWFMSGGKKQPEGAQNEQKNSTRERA
The experiment in a line: affinity purification with mass spectrometry; anti-FLAG M2 magnetic beads on lysates (1% Triton X-100) of B. subtilis grown overnight in LB with 50 uM Mn; 30 °C for 3 h; washed with 1X PBS; eluted by heating at 95 °C in 2X Laemmli sample buffer; LC-MS/MS; membrane proteins found in the sample but not in the untagged WT controls.

For another test, the target named is T2, MeeF-FLAG (B. subtilis) (UniProt O34447).
T2 sequence: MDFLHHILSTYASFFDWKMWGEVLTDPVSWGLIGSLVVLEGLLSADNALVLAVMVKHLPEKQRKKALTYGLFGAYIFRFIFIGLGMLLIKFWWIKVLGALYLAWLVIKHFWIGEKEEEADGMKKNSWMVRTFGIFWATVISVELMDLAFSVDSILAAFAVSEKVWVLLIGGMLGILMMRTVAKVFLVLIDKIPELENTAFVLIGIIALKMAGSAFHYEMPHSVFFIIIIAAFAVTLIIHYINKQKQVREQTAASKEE
The description is as above.

Test [2] deals with T1, MeeY-FLAG (B. subtilis). The test can be described thus: affinity purification with mass spectrometry; anti-FLAG M2 magnetic beads on lysates (1% Triton X-100) of B. subtilis grown overnight in LB with 50 uM Mn; 30 °C for 3 h; washed with 1X PBS; eluted by glycine (pH 3.0) for 30 min; LC-MS/MS; membrane proteins found in the sample but not in the untagged WT controls.

B1: PrsA (protein, UniProt P24327 20-292)
chain: CSSGDKEVIAKTDAGDVTKGELYTNMKKTAGASVLTQLVQEKVLDKKYKVSDKEIDNKLKEYKTQLGDQYTALEKQYGKDYLKEQVKYELLTQKAAKDNIKVTDADIKEYWEGLKGKIRASHILVADKKTAEEVEKKLKKGEKFEDLAKEYSTDSSASKGGDLGWFAKEGQMDETFSKAAFKLKTGEVSDPVKTQYGYHIIKKTEERGKYDDMKKELKSEVLEQKLNDNAAVQEAVQKVMKKADIEVKDKDLKDTFNTSSTSNSTSSSSSNSK
Consider B1, for which the binding result with MeeY-FLAG (B. subtilis) [1], in the test with MeeF-FLAG (B. subtilis) and in the test with MeeY-FLAG (B. subtilis) [2] was “binds” throughout.

B2: SecDF (protein, UniProt O32047 1-737)
chain: MKKGRLIAFFLFVLLIGTGLGYFTKPAANNITLGLDLQGGFEVLYDVQPVKKGDKITKDVLVSTVEALNRRANVLGVSEPNIQIEGNNRIRVQLAGVTNQNRAREILATEAQLSFRDANDKELLNGADLVENGAKQTYDSTTNEPIVTIKLKDADKFGEVTKKVMKMAPNNQLVIWLDYDKGDSFKKEVQKEHPKFVSAPNVSQELNTTDVKIEGHFTAQEAKDLASILNAGALPVKLTEKYSTSVGAQFGQQALHDTVFAGIVGIAIIFLFMLFYYRLPGLIAVITLSVYIYITLQIFDWMNAVLTLPGIAALILGVGMAVDANIITYERIKEELKLGKSVRSAFRSGNRRSFATIFDANITTIIAAVVLFIFGTSSVKGFATMLILSILTSFITAVFLSRFLLALLVESRWLDRKKGWFGVNKKHIMDIQDTDENTEPHTPFQKWDFTSKRKYFFIFSSAVTVAGIIILLVFRLNLGIDFASGARIEVQSDHKLTTEQVEKDFESLGMDPDTVVLSGEKSNIGVARFVGVPDKETIAKVKTYFKDKYGSDPNVSTVSPTVGKELARNALYAVAIASIGIIIYVSIRFEYKMAIAAIASLLYDAFFIVTFFSITRLEVDVTFIAAILTIIGYSINDTIVTFDRVREHMKKRKPKTFADLNHIVNLSLQQTFTRSINTVLTVVIVVVTLLIFGASSITNFSIALLVGLLTGVYSSLYIAAQIWLAWKGRELKKDSAQ
On to B2, for which the binding result with MeeY-FLAG (B. subtilis) [1], in the test with MeeF-FLAG (B. subtilis) and with MeeY-FLAG (B. subtilis) [2] was “binds” throughout.

B3: YknW (protein, UniProt O31709 1-231)
chain: METNVEKNSGTATEKPSLFGVITSPSVQFERIRERPAVWGPLLIVAAIIIVGAVLQSLGTDYSELLKSQDTQGLSAEQMETVATITKFGGMAGAIIGGIAALFIAPLIYWLCVKVSGGVTTYKKMLSLSLFVSLISSLGLLVNGIVAFTTDVNPLYSTTSLAGIIPSDGALASVLNTFEIFSIWSFVLLAIGLHKTGGISKKAGWISAIILFGILVVFSLFSGLINSVAGA
For B3, the binding entry with MeeY-FLAG (B. subtilis) [1] and with MeeF-FLAG (B. subtilis) was “binds” in each case.

B4: MgtE (protein, UniProt O34442 1-451)
chain: MVQNMTYDELILRIIILLRDGKIRDFRSVIDELQPYDMAFIFKEMPEKHRARYLSYLTVDDITDMIGELEREFQLVVLNKVGKTKATLAMNKMDNDDLAQLLEEMDEELKEQLLSSMEASESKAVQLLMNYPADSAGRMMTNRYVWIPQHYTVKDAVVKLKSFAEIAESINYLYVINESKQLVGVLSYRDLILGEPEEKVQDLMFTRVISADALQDQEEVARLIERYDFLAIPVVEENNVLVGIVTVDDIIDVVIREADEDYEKFAASGKDITFDTKAYVAAYRRLPWLILLLFIGLISGSIISYFEDALKQVVALAFFMPMVSGMTGNTGTQSLAVVIRGLSKEEMNKKTIVRLIFREFRTSIFIGAVCSVLIAIVSIIWQGNALLGFVVASSLFLTLIIGTMSGTIIPIILHKLKVDPAIASGPLITTLNDILSLLIYFGIATAFIHSL
Consider B4, for which the binding result in the test with MeeY-FLAG (B. subtilis) [2] is recorded as “binds”.

Source of the values: paper PMC10550928.
